Laboratory results from publication PMC3971453.
No constants are given. Whether binding was seen depends on the method and setting. Some entries that bind do so weakly or less than the wild type.

Chains of the proteins cited; added tags and fusions are not shown. Lines headed by an entry give the natural chain unless they say otherwise; changes in a name come on top.
UniProt P06451: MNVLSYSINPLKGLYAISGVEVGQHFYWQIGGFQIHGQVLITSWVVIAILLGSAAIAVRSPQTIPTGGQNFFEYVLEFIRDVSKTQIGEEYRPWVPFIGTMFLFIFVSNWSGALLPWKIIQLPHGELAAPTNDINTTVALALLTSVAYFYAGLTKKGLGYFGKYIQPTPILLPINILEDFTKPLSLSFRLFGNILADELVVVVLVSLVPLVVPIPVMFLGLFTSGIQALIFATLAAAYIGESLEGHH
UniProt P06453: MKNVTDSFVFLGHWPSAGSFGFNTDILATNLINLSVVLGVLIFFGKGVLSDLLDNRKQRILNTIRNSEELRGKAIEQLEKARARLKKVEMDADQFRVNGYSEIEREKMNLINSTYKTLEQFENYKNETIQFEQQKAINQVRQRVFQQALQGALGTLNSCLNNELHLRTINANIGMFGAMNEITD
UniProt P31853: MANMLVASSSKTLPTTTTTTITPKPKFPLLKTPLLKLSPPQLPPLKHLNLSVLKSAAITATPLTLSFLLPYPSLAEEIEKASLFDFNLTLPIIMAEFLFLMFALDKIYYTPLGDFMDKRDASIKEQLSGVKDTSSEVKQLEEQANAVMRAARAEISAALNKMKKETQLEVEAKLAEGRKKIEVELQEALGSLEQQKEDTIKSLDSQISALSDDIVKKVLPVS
UniProt P69447: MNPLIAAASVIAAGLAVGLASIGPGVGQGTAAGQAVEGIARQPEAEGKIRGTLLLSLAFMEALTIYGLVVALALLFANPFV
UniProt P06450: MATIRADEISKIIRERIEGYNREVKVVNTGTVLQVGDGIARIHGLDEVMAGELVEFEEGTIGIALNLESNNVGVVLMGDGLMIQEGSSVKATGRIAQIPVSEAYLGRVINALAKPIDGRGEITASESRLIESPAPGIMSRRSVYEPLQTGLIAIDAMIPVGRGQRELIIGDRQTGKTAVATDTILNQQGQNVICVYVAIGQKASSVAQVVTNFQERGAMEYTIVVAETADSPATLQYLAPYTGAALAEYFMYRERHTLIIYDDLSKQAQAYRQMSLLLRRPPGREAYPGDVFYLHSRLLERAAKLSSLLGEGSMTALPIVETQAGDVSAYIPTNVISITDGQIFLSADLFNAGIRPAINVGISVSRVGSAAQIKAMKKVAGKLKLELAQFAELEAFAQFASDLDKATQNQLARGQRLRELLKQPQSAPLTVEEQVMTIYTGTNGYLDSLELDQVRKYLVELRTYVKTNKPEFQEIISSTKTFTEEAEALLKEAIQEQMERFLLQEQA

Biological target: membrane-integrated FO domain (CFO) of the spinach CF1FO-ATP synthase (spinach (Spinacea oleracea L.)) (UniProt P06451+P06453+P31853+P69447)
Assay: native gel or EMSA; BN-PAGE, 3.5 to 16% acrylamide gradient; about 30 μg of solubilized purified CF1FO-ATP synthase in DDM per lane; both purified

binding: binds
Substance: chloroplast F1 domain (CF1) of the spinach CF1FO-ATP synthase (from UniProt P06450 1-507; P00825 1-498; P05435 42-364; P11402 71-257; P00833 1-134) (complex)
